Experimental data reported in PubChem BioAssay AID1671190 (National Center for Advancing Translational Sciences (NCATS), 2021).
The whole screen tested about 580,000 compounds, of which about 6,100 (1.1%) were called active. Inconclusive means that the source gave no clear call. Such entries were picked first, then a sample of the others. Calls come from the whole dose curve; as a rule, active = well fitted inhibition curve with a large enough effect; inconclusive = small, poorly fitted or top-dose-only effect, or another doubt; inactive = no such curve, though single readings can be large or run the other way. Potencies of inconclusive entries are doubtful fits and often do not repeat.

The chains behind the UniProt entries cited, without tags or fusion partners.
UniProt P18054, whole entry, looked up: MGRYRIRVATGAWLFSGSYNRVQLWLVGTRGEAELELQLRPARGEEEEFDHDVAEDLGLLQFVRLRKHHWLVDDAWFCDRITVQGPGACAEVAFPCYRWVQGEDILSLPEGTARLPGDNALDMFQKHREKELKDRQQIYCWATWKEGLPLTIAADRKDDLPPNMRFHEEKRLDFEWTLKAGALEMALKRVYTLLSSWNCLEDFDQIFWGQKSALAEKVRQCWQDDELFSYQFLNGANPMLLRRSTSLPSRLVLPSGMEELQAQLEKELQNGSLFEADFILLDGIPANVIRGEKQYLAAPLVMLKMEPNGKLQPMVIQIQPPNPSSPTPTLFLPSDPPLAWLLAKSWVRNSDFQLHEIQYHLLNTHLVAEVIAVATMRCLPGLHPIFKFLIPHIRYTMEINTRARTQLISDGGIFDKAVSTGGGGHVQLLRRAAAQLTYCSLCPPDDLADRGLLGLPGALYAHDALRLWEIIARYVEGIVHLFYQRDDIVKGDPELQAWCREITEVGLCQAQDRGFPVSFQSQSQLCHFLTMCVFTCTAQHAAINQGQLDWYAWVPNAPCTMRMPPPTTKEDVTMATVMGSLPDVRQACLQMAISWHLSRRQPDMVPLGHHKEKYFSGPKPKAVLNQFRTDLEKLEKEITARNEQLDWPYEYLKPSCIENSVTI

Molecular target: Polyunsaturated fatty acid lipoxygenase ALOX12 (Homo sapiens) (UniProt P18054)
Assay: Primary qHTS assay for inhibitors of human arachidonate 12S-lipoxygenase (ALOX12): Round 2
Details: purified 12hLO, xylenol orange hydroperoxide absorbance; activity change, negative = inhibition: at 108 µM (top of the series) unless noted
Method in brief: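 Purified human 12hLO at 150 nM in 25 mM Hepes, 0.01% Triton X-100, pH 7.0, preincubated 15 min at room temperature with compound. Reaction started with 40 uM arachidonic acid, 30 min at room temperature. Hydroperoxide measured by Fe-xylenol orange, 573/405 nm absorbance ratio.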
% is set by controls: 0 for no effect and ±100 for the full control effect; potency is the fitted concentration of half-maximal effect.

Structure (SMILES)	activity change, negative = inhibition	Potency
CCOc1ccc(CCNC(=O)c2cc(=O)[nH]c3ccc(S(=O)(=O)N4CCCCC4)cc23)cc1OCC	inactive: -13.5%	–
CCCNC(=O)c1cc2c(c(-c3cccc(-c4cc5ccccc5o4)c3)n1)[C@@H](CCO)N(C(=O)NC(C)C)C2	–	inconclusive: 0.398 µM [inhibitor, full curve, poor fit]
COc1ccc(/C=C/C(=O)N2CCN(c3ccccc3)CC2)cc1S(=O)(=O)N1CCOCC1	inactive: -2.99%	–
CCN(Cc1ccncc1)Cc1ccc(OC)cc1OC	–	inconclusive: 0.447 µM [inhibitor, full curve, poor fit]
CCc1ccc(NC(=O)NC(C(=O)N2CCc3ccccc32)c2ccccc2)cc1 (stereo not drawn)	inactive: 4.9%	–
COc1ccc(C(O)Cc2nc3ccccc3n2C)cc1OC (stereo not drawn)	–	inconclusive: 35.5 µM [inhibitor, single point]
O=C(CCNC(=O)C1CCCC1)NC1(c2ccccc2)CCC1	inactive: -67.2%	–
COc1ccc(NC(=O)c2ccc3c(=O)n(-c4ccc(OC)cc4OC)c(=S)[nH]c3c2)cc1	–	inconclusive: 10 µM [inhibitor, partial curve, poor fit]
CCCOc1ccc2oc(=O)c3c(c2c1)CCCN3C(=O)CN(C)Cc1ccccc1	–	inconclusive: 79.4 µM [inhibitor, partial curve, poor fit]
CCn1c(CNC(=O)c2ccc3c(c2)OCO3)nnc1SCC(=O)c1ccc(OC)cc1	–	inconclusive: 100 µM [inhibitor, single point]
COc1ccc(Cn2c(C3CCN(C(=O)Cc4cccc(F)c4)CC3)n[nH]c2=O)cc1	–	inconclusive: 25.1 µM [inhibitor, partial curve]
Cc1nc(C)c(-c2csc(Nc3ccccc3C)n2)s1	–	inconclusive: 50.1 µM [inhibitor, partial curve, poor fit]
O=C1CCCC2=C1C(c1ccc(OC(F)F)cc1)C=C1c3cc4c(cc3CCN12)OCCCO4 (stereo not drawn)	–	inconclusive: 0.282 µM [inhibitor, full curve, poor fit]
COc1cccc([C@@H]2CN(C(=O)c3oc(C)nc3C)C[C@H]2C(=O)O)c1OC	–	inconclusive: 1.58 µM [inhibitor, full curve, poor fit]
N#Cc1c(-c2ccc3c(c2)OCO3)ccn2nc(-c3cccc(C(F)(F)F)c3)nc12	–	inconclusive: 79.4 µM [inhibitor, single point]
CCCN(CC(=O)Nc1ccc(F)c(F)c1F)C(=O)C1CC(=O)N(Cc2ccccc2)C1 (stereo not drawn)	–	inconclusive: 70.8 µM [inhibitor, single point]
O=C(NCCCO)c1cc([N+](=O)[O-])cc2c1C=Cc1ccccc1O2	–	inconclusive: 44.7 µM [inhibitor, partial curve, poor fit]
CN(Cc1ccccc1)C(=O)C1CCN(Cc2ccc(F)cc2)CC1	–	inconclusive: 15.8 µM [inhibitor, partial curve, poor fit]
Cc1ccc(NC(=O)c2ccc3ncsc3c2)cc1C	–	inconclusive: 56.2 µM [inhibitor, single point]
COc1ccc(-c2noc(CCCC(=O)NC3CCCC3)n2)cc1	inactive: -8.64%	–
CCCCCCC1C2=C(CC(C)(C)CC2=O)OC2=C1C(=O)CC(C)(C)C2	–	inconclusive: 35.5 µM [inhibitor, partial curve, poor fit]

Full records as entered above. Values in the order: activity change, negative = inhibition | Potency
COc1ccc(Cn2c(C3CCN(C(=O)Cc4cccc(F)c4)CC3)n[nH]c2=O)cc1 in the list: – | inconclusive: 25.1 µM [inhibitor, partial curve]
CCCNC(=O)c1cc2c(c(-c3cccc(-c4cc5ccccc5o4)c3)n1)[C@@H](CCO)N(C(=O)NC(C)C)C2 in the list: – | inconclusive: 0.398 µM [inhibitor, full curve, poor fit]
CCCN(CC(=O)Nc1ccc(F)c(F)c1F)C(=O)C1CC(=O)N(Cc2ccccc2)C1 (stereo not drawn) in the list: – | inconclusive: 70.8 µM [inhibitor, single point]
COc1ccc(C(O)Cc2nc3ccccc3n2C)cc1OC (stereo not drawn) in the list: – | inconclusive: 35.5 µM [inhibitor, single point]

Following part

Structure (SMILES)	activity change, negative = inhibition	Potency
Cc1cc(C)cc(OCC(=O)Nc2ccc(-n3cnnn3)cc2)c1	–	inconclusive: 100 µM [inhibitor, single point]
CCc1ccc(N2CN(CCc3ccccc3)CNC2=S)cc1	–	inconclusive: 70.8 µM [inhibitor, partial curve, poor fit]
COc1ccc(NC(=O)NCCCN2CCCC2=O)cc1	inactive: 476%	–
COc1ccccc1OP(=O)(O)Oc1ccccc1OC	–	inconclusive: 44.7 µM [inhibitor, partial curve, poor fit]
CS/C(=N\S(=O)(=O)c1cccs1)Nc1cccc(Cl)c1C	inactive: -9.06%	–
COCC(=O)Oc1c(S(=O)(=O)c2ccc(C)cc2)c(C)nn1-c1ccccc1	–	inconclusive: 31.6 µM [inhibitor, partial curve, poor fit]
C[C@@H](NC(=O)c1cnccn1)c1c(-c2ccc(F)cc2)noc1C(=O)O	–	inconclusive: 2.51 µM [inhibitor, full curve, poor fit]
COc1cc2c(-c3ccc(O)cc3)nc3c(c(C)nn3-c3ccccc3)c2cc1OC	–	inconclusive: 79.4 µM [inhibitor, partial curve, poor fit]
CCN(CC)C(=O)c1cccnc1-c1nc2ccccc2s1	–	inconclusive: 50.1 µM [inhibitor, partial curve, poor fit]
Cc1ccc(CNC(=O)CCCN2C(=O)c3cccnc3Oc3ccc(Cl)cc32)cc1	–	inconclusive: 141 µM [inhibitor, partial curve, poor fit]
COc1cccc(C2=NOC(C(=O)Nc3cc(C)nn3-c3ccccc3)C2)c1OC (stereo not drawn)	–	inconclusive: 44.7 µM [inhibitor, partial curve, poor fit]
O=C(NCc1cccnc1)/C(=C\c1ccc(-c2ccc(Cl)c(Cl)c2)o1)S(=O)(=O)c1ccccc1	inactive: -25.1%	–
COc1ccc2c(CN3CCN(Cc4ccccc4)CC3)cc(=O)oc2c1	–	inconclusive: 44.7 µM [inhibitor, partial curve, poor fit]
COCCn1c(SC)nc2c1c(=O)[nH]c(=O)n2C	inactive: 26.3%	–
NC(=O)CC[C@H](NC(=O)[C@H](Cc1ccccc1)n1c(=O)[nH]c2ccccc2c1=O)C(=O)N1CCC[C@H]1C(=O)O	–	inconclusive: 141 µM [inhibitor, single point]
CC(C)(C)c1ccc(CC(=O)N2CCC2(C)C(=O)NS(=O)(=O)c2ccc(C#N)cc2)cc1 (stereo not drawn)	–	inconclusive: 44.7 µM [inhibitor, partial curve, poor fit]
Oc1ccc(CCc2n[nH]c(=S)n2-c2ccc(F)cc2)cc1	–	active: 25.1 µM
O=C(CCN1C(=O)/C(=C/c2ccco2)SC1=S)Nc1ccc(O)cc1C(=O)O	–	inconclusive: 39.8 µM [inhibitor, partial curve, poor fit]
COc1cc2c(cc1OC)C(COc1ccccc1OC)N(C(=O)C(C)(C)C)CC2 (stereo not drawn)	–	inconclusive: 39.8 µM [inhibitor, single point]
CN(C)C[C@@H]1CN(C2CCOCC2)C[C@H]1NC(=O)c1n[nH]c2ccccc12	inactive: 86.9%	–
CC(NC(=O)CCc1ncc(-c2ccc(Cl)cc2)o1)c1ccc2c(c1)NC(=O)CO2 (stereo not drawn)	–	inconclusive: 100 µM [inhibitor, partial curve, poor fit]

Structure (SMILES)	activity change, negative = inhibition	Potency
COc1ccc(NC(=O)CN(C)C(=O)c2ccc3c(c2)NC(=O)CS3)cc1	–	inconclusive: 100 µM [inhibitor, single point]
Brc1ccc(-c2ccnc3nc(-c4ccco4)nn23)s1	inactive: 0.475%	–
O=C(COC(=O)C12CC3CC(CC(Br)(C3)C1)C2)Nc1cccnc1Cl	inactive: 0.0481%	–
CC(C)C(NC(=O)c1cccs1)c1ccc2c(c1)OCCCO2 (stereo not drawn)	inactive: -27.3%	–
COc1cc(C(=S)N(C)C)ccc1O	–	inconclusive: 79.4 µM [inhibitor, single point]
NC(=O)C1CCN(Cc2nc3ccccc3c(=O)[nH]2)CC1	–	inconclusive: 0.251 µM [inhibitor, single point]
CC(C1CC1)N(C)Cc1nnc(-c2ccc(Br)o2)o1 (stereo not drawn)	inactive: 79.9%	–
COC(=O)c1ccc2c(=O)n(CCCCCC(=O)N3CCN(c4cc(Cl)ccc4C)CC3)c(=O)[nH]c2c1	–	inconclusive: 0.224 µM [inhibitor, full curve, poor fit]
O=C(Nc1cc(Cl)cc2c1[nH]c1cnccc12)c1cccnc1	–	inconclusive: 38.5 µM [inhibitor, partial curve, poor fit]
C=CCN1C(c2ccc(Br)cc2)=CS/C1=C(\C#N)c1nnc(N2CCOCC2)n1-c1ccccc1	–	active: 39.8 µM
Cc1ccc(OCc2nc(C#N)c(NCCCN3CCOCC3)o2)cc1	–	inconclusive: 35.5 µM [inhibitor, single point]
Cc1ccc(C(OCC(O)CN2CCCCC2CO)c2ccccc2)cc1 (stereo not drawn)	–	inconclusive: 10 µM [inhibitor, full curve, poor fit]
Cc1ccc(NC(=O)c2cc(=O)c3ccccc3o2)cc1C	–	inconclusive: 141 µM [inhibitor, partial curve, poor fit]
CCOc1ccc(C(=O)CCC(=O)N2CCN(c3ccccc3O)CC2)cc1	–	inconclusive: 39.8 µM [inhibitor, partial curve, poor fit]
CCN(CC)S(=O)(=O)c1ccc(-c2nc(C#N)c(NC3CC3)o2)cc1	–	inconclusive: 79.4 µM [inhibitor, single point]
COc1cccc(-c2nc3c(Nc4cccc(F)c4)nccc3[nH]2)c1F	–	inconclusive: 126 µM [inhibitor, single point]
CCc1ccc(NC(=O)N2CCN(c3nnc(C)c4c(C)n(-c5ccc(C)cc5)nc34)CC2)cc1	–	inconclusive: 89.1 µM [inhibitor, single point]
CC(=O)NC1(C)CCN(Cc2cccc(-c3ccc4c(ccn4C)c3)c2)C1 (stereo not drawn)	–	active: 31.6 µM
CN(Cc1ccccc1F)C(=O)c1cccc(NC(=O)CC2SC(N3CCCCC3)=NC2=O)c1 (stereo not drawn)	inactive: -25.7%	–
O=c1oc2ccccc2c(NCc2cccc(F)c2)c1[N+](=O)[O-]	–	inconclusive: 63.1 µM [inhibitor, partial curve, poor fit]
COc1ccc(-c2cc3c(ccn3C)c(C(=O)NCc3c(C)cc(C)[nH]c3=O)n2)cc1	–	inconclusive: 6.31 µM [inhibitor, full curve, poor fit]
